Some of the results follow. Small differences around the control level are noise.

Protein sequences, listed by entry. Tags and fused reporters are not part of them. Lines headed by an entry give the natural chain unless they say otherwise; changes in a name come on top.
UniProt Q96A65: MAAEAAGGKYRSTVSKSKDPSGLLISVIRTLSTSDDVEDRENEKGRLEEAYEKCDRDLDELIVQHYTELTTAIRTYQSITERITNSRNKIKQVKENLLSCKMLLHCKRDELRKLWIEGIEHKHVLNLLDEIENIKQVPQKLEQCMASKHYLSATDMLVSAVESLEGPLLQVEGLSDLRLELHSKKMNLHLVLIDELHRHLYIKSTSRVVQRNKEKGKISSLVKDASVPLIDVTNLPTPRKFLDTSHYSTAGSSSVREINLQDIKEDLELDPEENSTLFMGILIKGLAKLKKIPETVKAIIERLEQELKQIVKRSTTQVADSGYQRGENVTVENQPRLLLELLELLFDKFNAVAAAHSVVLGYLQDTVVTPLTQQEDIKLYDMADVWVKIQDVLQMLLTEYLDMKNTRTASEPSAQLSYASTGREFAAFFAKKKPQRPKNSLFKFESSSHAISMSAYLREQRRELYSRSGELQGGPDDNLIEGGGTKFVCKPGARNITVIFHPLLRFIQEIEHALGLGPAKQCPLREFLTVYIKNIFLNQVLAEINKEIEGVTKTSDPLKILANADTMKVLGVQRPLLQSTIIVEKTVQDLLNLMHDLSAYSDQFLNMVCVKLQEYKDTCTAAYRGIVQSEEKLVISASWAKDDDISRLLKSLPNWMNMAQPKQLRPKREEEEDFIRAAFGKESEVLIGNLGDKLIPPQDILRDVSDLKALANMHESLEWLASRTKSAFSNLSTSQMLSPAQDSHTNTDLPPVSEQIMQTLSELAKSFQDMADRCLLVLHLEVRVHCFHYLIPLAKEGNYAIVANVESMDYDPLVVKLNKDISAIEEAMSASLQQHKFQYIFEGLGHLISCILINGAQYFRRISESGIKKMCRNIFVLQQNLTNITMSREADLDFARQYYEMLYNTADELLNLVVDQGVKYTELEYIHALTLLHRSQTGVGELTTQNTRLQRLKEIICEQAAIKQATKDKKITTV
UniProt Q96DN6: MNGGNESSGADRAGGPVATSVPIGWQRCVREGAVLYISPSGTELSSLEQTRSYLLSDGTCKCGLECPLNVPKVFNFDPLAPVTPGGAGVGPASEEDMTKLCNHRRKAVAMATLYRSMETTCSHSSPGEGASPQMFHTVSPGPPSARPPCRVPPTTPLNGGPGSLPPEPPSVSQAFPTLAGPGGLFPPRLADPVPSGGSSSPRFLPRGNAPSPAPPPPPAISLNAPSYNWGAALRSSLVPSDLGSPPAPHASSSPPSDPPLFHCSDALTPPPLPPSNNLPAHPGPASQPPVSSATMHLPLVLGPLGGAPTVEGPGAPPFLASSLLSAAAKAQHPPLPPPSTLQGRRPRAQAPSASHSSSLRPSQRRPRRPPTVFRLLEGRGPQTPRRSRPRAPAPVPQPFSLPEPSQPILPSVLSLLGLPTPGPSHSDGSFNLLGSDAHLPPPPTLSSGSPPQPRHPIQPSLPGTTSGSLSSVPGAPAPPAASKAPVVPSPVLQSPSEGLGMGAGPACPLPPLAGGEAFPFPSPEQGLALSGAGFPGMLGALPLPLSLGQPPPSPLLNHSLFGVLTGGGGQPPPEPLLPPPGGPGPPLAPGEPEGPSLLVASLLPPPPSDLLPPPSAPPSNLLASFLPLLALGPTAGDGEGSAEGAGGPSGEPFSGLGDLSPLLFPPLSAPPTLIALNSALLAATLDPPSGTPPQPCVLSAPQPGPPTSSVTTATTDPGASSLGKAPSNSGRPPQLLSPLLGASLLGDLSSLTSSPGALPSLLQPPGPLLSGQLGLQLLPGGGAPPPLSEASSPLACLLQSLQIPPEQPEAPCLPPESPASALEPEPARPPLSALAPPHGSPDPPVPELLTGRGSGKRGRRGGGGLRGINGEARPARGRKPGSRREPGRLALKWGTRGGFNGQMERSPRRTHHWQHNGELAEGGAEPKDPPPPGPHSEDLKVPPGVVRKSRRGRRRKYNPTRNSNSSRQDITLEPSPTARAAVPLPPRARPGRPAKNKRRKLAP
UniProt Q969T4: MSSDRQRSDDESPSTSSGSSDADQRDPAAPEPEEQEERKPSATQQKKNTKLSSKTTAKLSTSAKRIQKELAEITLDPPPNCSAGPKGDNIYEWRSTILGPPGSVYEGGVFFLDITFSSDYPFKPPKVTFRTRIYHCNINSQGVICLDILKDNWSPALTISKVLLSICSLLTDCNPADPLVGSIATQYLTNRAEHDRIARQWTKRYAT
UniProt Q96EZ8, whole entry: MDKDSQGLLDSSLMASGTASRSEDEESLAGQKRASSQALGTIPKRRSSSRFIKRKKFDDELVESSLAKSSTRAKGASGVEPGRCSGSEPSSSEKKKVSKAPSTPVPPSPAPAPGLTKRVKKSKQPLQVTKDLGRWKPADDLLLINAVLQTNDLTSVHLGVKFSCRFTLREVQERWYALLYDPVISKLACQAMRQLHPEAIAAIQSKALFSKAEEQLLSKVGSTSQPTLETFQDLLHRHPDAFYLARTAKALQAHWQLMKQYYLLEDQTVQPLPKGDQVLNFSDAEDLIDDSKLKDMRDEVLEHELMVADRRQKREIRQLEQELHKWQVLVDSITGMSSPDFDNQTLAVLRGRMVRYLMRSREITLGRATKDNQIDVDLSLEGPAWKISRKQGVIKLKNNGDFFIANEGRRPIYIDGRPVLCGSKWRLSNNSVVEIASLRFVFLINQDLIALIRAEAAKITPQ
UniProt Q96C28: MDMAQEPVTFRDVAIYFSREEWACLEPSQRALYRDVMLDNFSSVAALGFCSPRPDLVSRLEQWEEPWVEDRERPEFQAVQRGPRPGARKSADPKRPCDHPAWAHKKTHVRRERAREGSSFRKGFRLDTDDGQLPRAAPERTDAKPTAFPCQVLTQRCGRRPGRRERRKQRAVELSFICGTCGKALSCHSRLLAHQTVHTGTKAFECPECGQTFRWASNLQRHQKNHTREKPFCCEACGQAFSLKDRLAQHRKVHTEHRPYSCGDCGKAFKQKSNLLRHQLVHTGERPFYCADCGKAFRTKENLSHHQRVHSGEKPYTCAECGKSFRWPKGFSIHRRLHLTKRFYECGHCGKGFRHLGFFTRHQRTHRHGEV
UniProt Q92621: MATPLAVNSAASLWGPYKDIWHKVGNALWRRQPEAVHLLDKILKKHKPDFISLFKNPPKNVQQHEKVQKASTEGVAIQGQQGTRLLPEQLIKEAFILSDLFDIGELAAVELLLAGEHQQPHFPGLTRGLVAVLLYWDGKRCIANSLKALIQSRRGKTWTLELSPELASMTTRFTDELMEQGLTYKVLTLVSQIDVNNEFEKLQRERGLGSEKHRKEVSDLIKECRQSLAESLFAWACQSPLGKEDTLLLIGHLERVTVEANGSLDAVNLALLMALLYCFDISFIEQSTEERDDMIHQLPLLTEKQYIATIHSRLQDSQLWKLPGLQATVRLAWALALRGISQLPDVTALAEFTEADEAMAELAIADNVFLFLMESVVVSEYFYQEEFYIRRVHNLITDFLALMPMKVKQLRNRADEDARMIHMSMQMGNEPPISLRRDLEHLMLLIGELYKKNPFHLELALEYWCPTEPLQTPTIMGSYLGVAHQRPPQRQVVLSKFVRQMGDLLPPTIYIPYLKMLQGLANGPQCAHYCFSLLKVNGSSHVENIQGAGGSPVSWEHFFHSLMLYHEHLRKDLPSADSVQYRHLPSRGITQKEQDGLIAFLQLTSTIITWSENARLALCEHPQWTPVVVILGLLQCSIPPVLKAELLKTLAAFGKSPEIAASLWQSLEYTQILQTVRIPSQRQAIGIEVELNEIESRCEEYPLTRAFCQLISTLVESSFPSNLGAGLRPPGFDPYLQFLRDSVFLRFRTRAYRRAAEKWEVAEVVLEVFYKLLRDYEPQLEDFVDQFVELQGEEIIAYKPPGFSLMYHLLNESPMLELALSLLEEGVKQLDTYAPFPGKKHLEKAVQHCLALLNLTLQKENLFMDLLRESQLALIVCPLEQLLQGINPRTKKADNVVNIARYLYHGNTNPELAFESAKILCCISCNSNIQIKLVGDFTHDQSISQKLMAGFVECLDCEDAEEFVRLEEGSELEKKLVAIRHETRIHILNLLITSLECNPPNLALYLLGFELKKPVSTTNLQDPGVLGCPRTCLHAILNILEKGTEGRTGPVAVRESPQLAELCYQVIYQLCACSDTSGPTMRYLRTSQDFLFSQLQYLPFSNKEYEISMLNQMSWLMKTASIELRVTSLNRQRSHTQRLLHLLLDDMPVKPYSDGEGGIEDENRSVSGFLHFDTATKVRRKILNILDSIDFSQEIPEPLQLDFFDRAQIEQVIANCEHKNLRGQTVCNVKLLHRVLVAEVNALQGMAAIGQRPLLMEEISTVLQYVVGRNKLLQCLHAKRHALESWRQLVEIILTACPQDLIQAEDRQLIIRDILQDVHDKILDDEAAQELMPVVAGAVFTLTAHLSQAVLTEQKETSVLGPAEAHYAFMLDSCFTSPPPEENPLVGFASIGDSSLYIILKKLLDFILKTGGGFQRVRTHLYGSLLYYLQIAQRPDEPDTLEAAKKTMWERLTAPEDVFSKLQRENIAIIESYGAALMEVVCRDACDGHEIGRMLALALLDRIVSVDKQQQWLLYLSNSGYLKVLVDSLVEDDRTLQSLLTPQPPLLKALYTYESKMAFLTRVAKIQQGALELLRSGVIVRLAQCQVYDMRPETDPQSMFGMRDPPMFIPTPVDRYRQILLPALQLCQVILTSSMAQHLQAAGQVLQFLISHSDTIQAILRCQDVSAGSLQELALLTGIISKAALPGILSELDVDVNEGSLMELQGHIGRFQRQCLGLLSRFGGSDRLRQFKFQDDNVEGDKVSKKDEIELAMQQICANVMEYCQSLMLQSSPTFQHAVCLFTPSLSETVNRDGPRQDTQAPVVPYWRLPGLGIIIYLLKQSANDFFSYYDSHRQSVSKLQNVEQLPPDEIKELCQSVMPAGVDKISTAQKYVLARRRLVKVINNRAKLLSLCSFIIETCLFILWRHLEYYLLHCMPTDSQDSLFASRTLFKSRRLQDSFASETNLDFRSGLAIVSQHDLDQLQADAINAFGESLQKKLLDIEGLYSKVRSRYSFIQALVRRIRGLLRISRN
UniProt Q92890: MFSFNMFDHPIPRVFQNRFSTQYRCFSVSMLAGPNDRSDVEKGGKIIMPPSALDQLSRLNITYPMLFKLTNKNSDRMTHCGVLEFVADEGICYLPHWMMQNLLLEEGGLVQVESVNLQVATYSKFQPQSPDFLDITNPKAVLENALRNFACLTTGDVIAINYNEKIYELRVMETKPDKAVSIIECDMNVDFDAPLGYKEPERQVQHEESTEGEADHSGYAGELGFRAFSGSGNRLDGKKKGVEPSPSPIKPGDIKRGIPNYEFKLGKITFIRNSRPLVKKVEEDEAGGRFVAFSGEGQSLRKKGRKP
UniProt Q969M7: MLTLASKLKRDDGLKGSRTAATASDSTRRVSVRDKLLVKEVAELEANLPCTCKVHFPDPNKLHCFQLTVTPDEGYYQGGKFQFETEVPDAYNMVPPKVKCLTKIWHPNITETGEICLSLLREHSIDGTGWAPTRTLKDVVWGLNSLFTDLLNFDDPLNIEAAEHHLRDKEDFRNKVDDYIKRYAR
UniProt Q96CW5, whole entry: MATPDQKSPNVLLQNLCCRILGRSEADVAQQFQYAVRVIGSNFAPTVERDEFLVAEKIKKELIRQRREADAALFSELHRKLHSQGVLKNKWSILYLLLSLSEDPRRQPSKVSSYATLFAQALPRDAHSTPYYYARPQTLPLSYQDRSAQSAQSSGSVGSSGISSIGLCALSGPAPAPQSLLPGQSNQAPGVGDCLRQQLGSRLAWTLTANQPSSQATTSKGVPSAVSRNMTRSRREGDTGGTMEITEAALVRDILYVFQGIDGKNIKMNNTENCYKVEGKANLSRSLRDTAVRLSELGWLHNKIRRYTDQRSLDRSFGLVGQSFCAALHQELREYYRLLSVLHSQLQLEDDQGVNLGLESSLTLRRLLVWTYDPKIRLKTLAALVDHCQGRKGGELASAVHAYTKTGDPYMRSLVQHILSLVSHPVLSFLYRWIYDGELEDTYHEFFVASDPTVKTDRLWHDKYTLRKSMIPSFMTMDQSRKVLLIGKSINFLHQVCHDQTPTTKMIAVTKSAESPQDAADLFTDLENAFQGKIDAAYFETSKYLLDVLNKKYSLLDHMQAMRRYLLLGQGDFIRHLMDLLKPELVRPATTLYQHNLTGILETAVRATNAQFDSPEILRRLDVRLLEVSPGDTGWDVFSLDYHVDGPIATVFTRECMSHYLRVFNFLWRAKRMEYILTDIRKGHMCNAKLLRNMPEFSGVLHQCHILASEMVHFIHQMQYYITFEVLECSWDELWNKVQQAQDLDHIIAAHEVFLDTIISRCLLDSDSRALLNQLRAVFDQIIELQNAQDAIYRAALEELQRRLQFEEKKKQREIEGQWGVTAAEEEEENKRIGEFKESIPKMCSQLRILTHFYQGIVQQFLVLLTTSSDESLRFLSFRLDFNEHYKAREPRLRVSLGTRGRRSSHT
UniProt Q92686, whole entry: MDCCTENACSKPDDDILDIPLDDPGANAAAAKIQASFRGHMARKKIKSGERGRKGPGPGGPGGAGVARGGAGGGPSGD

From the supplement of paper PMC12819154, “High-throughput peptide-centric local stability assay extends protein–ligand identification to membrane proteins, tissues and bacteria” (Nature Structural & Molecular Biology, 2025) come the findings set out here.

Compound in the assay: Cc1nc(Nc2ncc(C(=O)Nc3c(C)cccc3Cl)s2)cc(N2CCN(CCO)CC2)n1 [dasatinib]
The assay can be described thus: log2 fold change of tryptic peptide abundance, ligand vs vehicle (limited proteolysis) (log2 ratio); higher = more trypsin-susceptible (destabilized). Particulars: ligand concentration: 5 uM; sample: K562 cleared lysate.
“EXOC4 (peptide sequence: ESEVLIGNLGDK, peptide start residue: 682) (UniProt Q96A65)”: the log2 fold change was -0.161.

Consider “UniProt Q96ES7 (peptide sequence: IAGLYNDSEPPRK, peptide start residue: 100)”, for which the log2 fold change worked out at 0.247.

As for “TATDN2 (peptide sequence: VVIDPQEKPSEEPLGDRR, peptide start residue: 275) (UniProt Q93075)”, the log2 fold change is 0.205.

For the target “SLC7A6OS (peptide sequence: RSAEPAEALVLACKR, peptide start residue: 15) (UniProt Q96CW6)”, the log2 fold change was -0.26.

Turning to “GPRASP2 (peptide sequence: TQATTGARPK, peptide start residue: 42) (UniProt Q96D09)”, the log2 fold change was found to be 0.478.

Take “MBD6 (peptide sequence: AQAPSASHSSSLRPSQR, peptide start residue: 348) (UniProt Q96DN6)”: the log2 fold change is -0.289.

Take “PTER (peptide sequence: ILQEAGADISK, peptide start residue: 215) (UniProt Q96BW5)”: the log2 fold change was -0.33.

Turning to “RAB8B (peptide sequence: MNDSNSAGAGGPVK, peptide start residue: 177) (UniProt Q92930)”, the log2 fold change is -0.0382.

As to “CREBBP (peptide sequence: SEPMEVDEKKPEVK, peptide start residue: 1043) (UniProt Q92793)”, the log2 fold change is 0.133.

In the case of “R3HDM4 (peptide sequence: LLPLPSCLPALASSQVKR, peptide start residue: 23) (UniProt Q96D70)”, the log2 fold change was 0.0964.

On to “UBE2E3 (peptide sequence: KPSATQQK, peptide start residue: 39) (UniProt Q969T4)”, for which the log2 fold change was -0.0173.

With “EVPL (peptide sequence: QAREEEAR, peptide start residue: 1551) (UniProt Q92817)”, the log2 fold change was -0.111.

With “MCRS1 (peptide sequence: SKQPLQVTK, peptide start residue: 122) (UniProt Q96EZ8)”, the log2 fold change is -0.26.

As for “LRRC45 (peptide sequence: VSQLGLQVEGLRR, peptide start residue: 537) (UniProt Q96CN5)”, the log2 fold change is 0.192.

On to “TTC28 (peptide sequence: SQEESNPK, peptide start residue: 2149) (UniProt Q96AY4)”, for which the log2 fold change was found to be 1.01.

As for “UniProt Q96EH3 (peptide sequence: HLHAMAFYVVK, peptide start residue: 134)”, the log2 fold change was 0.0733.

Take “DLG3 (peptide sequence: TGMIESNR, peptide start residue: 584) (UniProt Q92796)”: the log2 fold change was determined as 0.118.

As to “SEH1L (peptide sequence: AHSPMIAVGSDDSSPNAMAK, peptide start residue: 177) (UniProt Q96EE3)”, the log2 fold change is -0.518.

For the target “USP6NL (peptide sequence: KLPSGPQDSSR, peptide start residue: 452) (UniProt Q92738)”, the log2 fold change is -0.387.

Take “FGF13 (peptide sequence: SMSHNEST, peptide start residue: 238) (UniProt Q92913)”: the log2 fold change is 0.27.

“GTF3C6 (peptide sequence: KEGEENIGGVEWLQIK, peptide start residue: 114) (UniProt Q969F1)”: the log2 fold change was found to be 0.154.

For “UniProt Q96C28 (peptide sequence: TDAKPTAFPCQVLTQR, peptide start residue: 141)”, the log2 fold change worked out at 0.204.

On to “ITFG2 (peptide sequence: DVVLHQTSGR, peptide start residue: 239) (UniProt Q969R8)”, for which the log2 fold change turned out to be 0.127.

“NUP205 (peptide sequence: YLYHGNTNPELAFESAK, peptide start residue: 902) (UniProt Q92621)”: the log2 fold change is -0.199.

Take “UniProt Q92890 (peptide sequence: GIPNYEFK, peptide start residue: 257)”: the log2 fold change was -0.104.

With “UBE2F (peptide sequence: TAATASDSTR, peptide start residue: 19) (UniProt Q969M7)”, the log2 fold change was 0.127.

As for “UniProt Q96EA4 (peptide sequence: ETSSKLEK, peptide start residue: 573)”, the log2 fold change was -1.15.

In the case of “UniProt Q92619 (peptide sequence: SAPDGVPFIVK, peptide start residue: 769)”, the log2 fold change was 0.35.

On to “TUBGCP3 (peptide sequence: EADAALFSELHR, peptide start residue: 68) (UniProt Q96CW5)”, for which the log2 fold change is -0.354.

As for “ANP32B (peptide sequence: LPNLTHLNLSGNKLK, peptide start residue: 87) (UniProt Q92688)”, the log2 fold change is -0.498.

For “UniProt Q96CS4 (peptide sequence: RAHSGECPYVCDQCGKR, peptide start residue: 197)”, the log2 fold change was -0.506.

In the case of “NRGN (peptide sequence: GPGPGGPGGAGVAR, peptide start residue: 55) (UniProt Q92686)”, the log2 fold change amounted to 0.434.

As for “EFHD2 (peptide sequence: RADLNQGIGEPQSPSR, peptide start residue: 62) (UniProt Q96C19)”, the log2 fold change is 0.0774.

With “GOLGA1 (peptide sequence: NILTAQLQEMK, peptide start residue: 147) (UniProt Q92805)”, the log2 fold change is -0.253.

As to “MRPS31 (peptide sequence: ATEYAPKK, peptide start residue: 139) (UniProt Q92665)”, the log2 fold change turned out to be 0.618.

For the target “DPF2 (peptide sequence: SGHPSCLQFTPVMMAAVK, peptide start residue: 301) (UniProt Q92785)”, the log2 fold change is -0.54.

With “PPWD1 (peptide sequence: DVITHVVCTK, peptide start residue: 91) (UniProt Q96BP3)”, the log2 fold change was -0.454.
